Source: publication doi:10.1101/2022.11.02.514974
These are yes or no findings as the source states them, for the method shown. A result given as binding can be weak or reduced; the word gives no strength.

What was measured:
[1] = target: T1, WhiA N-terminal domain (amino acids 1-227) (B. subtilis) (UniProt O06975); experiment: two-hybrid
T1 sequence: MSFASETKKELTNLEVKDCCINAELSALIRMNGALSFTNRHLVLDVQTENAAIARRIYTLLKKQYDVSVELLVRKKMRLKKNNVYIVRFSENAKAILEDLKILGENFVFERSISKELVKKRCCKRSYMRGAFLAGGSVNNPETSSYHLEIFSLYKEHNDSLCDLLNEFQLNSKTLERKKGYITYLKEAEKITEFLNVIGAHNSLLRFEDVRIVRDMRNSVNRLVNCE

[2] = target: T2, full length WhiA (B. subtilis) (UniProt O06975); experiment: two-hybrid
T2 sequence: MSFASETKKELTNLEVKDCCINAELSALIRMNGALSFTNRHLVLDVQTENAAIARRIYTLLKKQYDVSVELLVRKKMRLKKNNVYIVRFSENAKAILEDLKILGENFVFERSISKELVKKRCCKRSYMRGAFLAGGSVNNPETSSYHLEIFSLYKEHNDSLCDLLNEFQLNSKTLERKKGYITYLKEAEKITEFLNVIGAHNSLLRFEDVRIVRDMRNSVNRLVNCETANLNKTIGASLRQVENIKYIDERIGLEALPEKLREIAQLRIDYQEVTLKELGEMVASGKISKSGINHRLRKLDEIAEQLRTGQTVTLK

YrhJ (B. subtilis)
binding [1]: binds
binding [2]: binds
